This passage reports binding results from patent US20250195685A1.

By UniProt entry, the sequences of proteins in these tests, tags left out. Residues count along the entry.
UniProt P01732, residues 22-235: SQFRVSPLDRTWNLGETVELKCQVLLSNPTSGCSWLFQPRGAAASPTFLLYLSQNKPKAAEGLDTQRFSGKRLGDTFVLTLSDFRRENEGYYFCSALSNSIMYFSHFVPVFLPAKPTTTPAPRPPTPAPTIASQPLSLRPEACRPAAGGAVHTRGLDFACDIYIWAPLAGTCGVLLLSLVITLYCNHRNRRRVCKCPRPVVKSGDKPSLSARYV

The target of assay [1] is human CD8 on cells (CD8-overexpressing HEK293T cells, SupT1, HPB-ALL, human T cells, transfected HEK293 of the proteome array) (human) (UniProt P01732). In words: flow cytometry on CD8-overexpressing HEK293T cells, anti-human Fc BV421, gMFI normalized to secondary alone. In general terms: A flow cytometer gives signals particle by particle.
Assay [2] shares this target. Put plainly: flow cytometry on expanded human T cells.
The target is the same in assay [3]. Put plainly: flow cytometry, gMFI fold over background (FIG. 8B).
Assay [4] shares this target. In words: flow cytometry, Human Expanded T cells Donor 5 and Donor 6, gated on CD4- T cells, anti-human Fc BV421.

No constants are given. Whether binding was seen depends on the method and setting. Some entries that bind do so weakly or less than the wild type. Tags and fused reporters may be left off the sequences shown.

B1: CBD1032 whole antibody, Fc-silenced human IgG1 (LALAPA) (antibody, V domains shown)
VH: QVQLVQSGAEVKKPGASVKVSCKASRYTFTDYNLHWVRQAPGQGLEWMGFIYPYNGGTGYAQKFQGRVTMTRDTSTSTVYMELSSLRSEDTAVYYCARDHRYNEGVSFDYWGQGTTVTVSS
VL: DIQMTQSPSSLSASVGDRVTITCRASESVDGFGNSFMNWYQQKPGKAPKLLIYLASNLESGVPSRFSGSGSGTDFTLTISSLQPEDFATYYCQQNNEDPYTFGQGTKLEIKR
On to B1, for which the binding result in assay [1] is “binds”.

B2: CBD1033 whole antibody, human IgG1 with Fc-silencing mutations L234A, L235A and P329A (CBD1033-hIgG1-LALAPA) (antibody, V domains shown)
VH: QVQLVQSGAEVKKPGASVKVSCKASRYTFTDYNLHWVRQAPGQGLEWMGFIYPYNGGTGYAQKFQGRVTMTVDTSTSTAYMELSSLRSEDTAVYYCARDHRYNEGVSFDYWGQGTTVTVSS
VL: DIQLTQSPSSLSASVGDRATITCRASESVDGFGNSFMNWYQQKPGKAPKLLIYLASNLESGVPSRFSGSGSGTDFTLTISSVQPEDFATYYCQQNNEDPYTFGQGTKLEIKR
Turning to B2, the binding result in assay [1], in assay [2], in assay [3] and in assay [4] was “binds” in each case.

B3: CBD1035 whole antibody, Fc-silenced human IgG1 (LALAPA) (antibody, V domains shown)
VH: QVQLVQSGAEVKKPGASVKISCKASRYTFTDYNLHWVRQAPGQGLEWIGFIYPYNGGTGYAQKFQGRATLTVDTSTSTAYMELSSLRSEDTAVYYCARDHRYNEGVSFDYWGQGTTLTVSS
VL: DIQLTQSPSSLSASVGDRATITCRASESVDGFGNSFMNWYQQKPGKAPKLLIYLASNLESGVPSRFSGSGSGTDFTLTISSVQPEDFATYYCQQNNEDPYTFGQGTKLEIKR
With B3, the binding result in assay [1] is “binds”.

B4: CBD1037-hIgG1-LALAPA (antibody, V domains shown)
VH: QVQLVQSGAEVKKPGASVKVSCKASRYTFTDYNLHWVRQAPGQGLEWMGFIYPYNGGTGYAQKFQGRVTMTVDYSTSTAYMELSSLRSEDTAVYYCARDHRYNEGVSFDYWGQGTTVTVSS
VL: DIQLTQSPSSLSASVGDRATITCRASESVDGFGNSFMNWYQQKPGKAPKLLIYLASNLESGVPSRFSGSGSGTDFTLTISSVQPEDFATYYCQQNNEDPYTFGQGTKLEIKR
Turning to B4, in assay [1], the binding entry is reported as “binds”.

B5: CBD1036-hIgG1-LALAPA (antibody, V domains shown)
VH: QVQLVQSGAEVKKPGASVKISCKASRYTFTDYNLHWVRQAPGQGLEWIGFIYPYNGGTGYAQKFQGRATLTVDTSTSTAYMELSSLRSEDTAVYYCARDHRYNEGVSFDYWGQGTTLTVSS
VL: DIQLTQSPSSLSASVGDRATITCRASESVDGFGNSFMNWYQQKPGKAPKLLIYLASNLESGVPSRFSGSGSRTDFTLTISSVQPEDFATYYCQQNNEDPYTFGQGTKLEIKR
As for B5, the binding entry in assay [1] was “binds”.

B6: CBD1039 whole antibody, Fc-silenced human IgG1 (LALAPA) (antibody, V domains shown)
VH: QVQLVQSGAEVKKPGASVKISCKASRYTFTDYNLHWVRQAPGQGLEWIGFIYPYNGGTGYAQKFQGRATLTVDYSTSTAYMELSSLRSEDTAVYYCARDHRYNEGVSFDYWGQGTTLTVSS
VL: DIQLTQSPSSLSASVGDRATITCRASESVDGFGNSFMNWYQQKPGKAPKLLIYLASNLESGVPSRFSGSGSGTDFTLTISSVQPEDFATYYCQQNNEDPYTFGQGTKLEIKR
For the molecule B6, in assay [1], the binding result is “binds”.

B7: CBD1038-hIgG1-LALAPA (antibody, V domains shown)
VH: QVQLVQSGAEVKKPGASVKVSCKASRYTFTDYNLHWVRQAPGQGLEWMGFIYPYNGGTGYAQKFQGRVTMTVDYSTSTAYMELSSLRSEDTAVYYCARDHRYNEGVSFDYWGQGTTVTVSS
VL: DIQLTQSPSSLSASVGDRATITCRASESVDGFGNSFMNWYQQKPGKAPKLLIYLASNLESGVPSRFSGSGSRTDFTLTISSVQPEDFATYYCQQNNEDPYTFGQGTKLEIKR
As to B7, the binding entry in assay [1] is on record as “binds”.

B8: CBD1040 whole antibody, Fc-silenced human IgG1 (LALAPA) (antibody, V domains shown)
VH: QVQLVQSGAEVKKPGASVKISCKASRYTFTDYNLHWVRQAPGQGLEWIGFIYPYNGGTGYAQKFQGRATLTVDYSTSTAYMELSSLRSEDTAVYYCARDHRYNEGVSFDYWGQGTTLTVSS
VL: DIQLTQSPSSLSASVGDRATITCRASESVDGFGNSFMNWYQQKPGKAPKLLIYLASNLESGVPSRFSGSGSRTDFTLTISSVQPEDFATYYCQQNNEDPYTFGQGTKLEIKR
As to B8, the binding entry in assay [1] is given as “binds”.

B9: CBD1034 whole antibody, Fc-silenced human IgG1 (LALAPA) (antibody, V domains shown)
VH: QVQLVQSGAEVKKPGASVKVSCKASRYTFTDYNLHWVRQAPGQGLEWMGFIYPYNGGTGYAQKFQGRVTMTVDTSTSTAYMELSSLRSEDTAVYYCARDHRYNEGVSFDYWGQGTTVTVSS
VL: DIQLTQSPSSLSASVGDRATITCRASESVDGFGNSFMNWYQQKPGKAPKLLIYLASNLESGVPSRFSGSGSRTDFTLTISSVQPEDFATYYCQQNNEDPYTFGQGTKLEIKR
For the molecule B9, in assay [1], the binding result is “binds”.
